{"source": "paper PMC7819943", "about": "“Rice protein-binding microarrays: a tool to detect cis-acting elements near promoter regions in rice”", "note": "Some of the results follow."}
{"molecular_target": "T1, OsSMF1 (Oryza sativa, UniProt Q6ZLB0 1-436)", "T1 sequence": "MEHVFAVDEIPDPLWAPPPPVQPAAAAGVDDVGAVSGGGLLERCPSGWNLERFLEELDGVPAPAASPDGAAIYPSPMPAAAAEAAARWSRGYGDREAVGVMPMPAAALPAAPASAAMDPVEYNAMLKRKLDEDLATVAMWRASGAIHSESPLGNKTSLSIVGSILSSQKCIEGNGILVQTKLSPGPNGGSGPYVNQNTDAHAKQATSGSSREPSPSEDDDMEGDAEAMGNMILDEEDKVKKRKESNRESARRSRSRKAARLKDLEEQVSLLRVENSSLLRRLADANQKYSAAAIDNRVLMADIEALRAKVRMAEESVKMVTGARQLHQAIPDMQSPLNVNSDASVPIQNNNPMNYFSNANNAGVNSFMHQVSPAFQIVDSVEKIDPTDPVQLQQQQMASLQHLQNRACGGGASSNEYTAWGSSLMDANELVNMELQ", "test": "protein-binding microarray (RPBM); PBS, 2% BSA, 51.3 ng/ul salmon testes DNA, 50 uM zinc acetate, 200 nM TF, 25 C, 1 h; high values mean tight binding", "conditions": "protein: recombinant; tags: N-terminal polyhistidine and DsRed monomer fusion (pET32a); chain copies: 2; label: CyDye5-dUTP incorporated in the synthesized complementary strand; 3' TTTTT single-stranded linker to array surface; dsDNA, one strand shown", "summary_of_the_method": "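Ni–NTA purification followed expression in E. coli BL21-CodonPlus of transcription factors fused N-terminally to a polyhistidine tag and DsRed. At 200 nM in PBS with 2% BSA, salmon testes DNA and 50 µM zinc acetate, the protein was incubated for 1 h at 25 °C with a custom Agilent array that had been primer-extended with Cy5-dUTP and blocked with 2% BSA. After washing, the array was read on an Axon 4000B scanner. The binding signal is per-feature fluorescence intensity in arbitrary units.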"}
{"sequence": "GTGCTTATTTGATGTGGCATTTGGGCCTTGGTTTAACCGTCGGAGTCACCTAGTGCAG", "binding signal": "4430 fluorescence intensity (a.u.)"}
{"sequence": "CCATCAAGAGAAGCTCTACCTCGGCCCGTCCTCGCCCGCCCGGAGTCACCTAGTGCAG", "binding signal": "34900 fluorescence intensity (a.u.)"}
{"sequence": "TAGGCTAGCTTGTCAACGTCACCGACGCACGCAATTACTTCGGAGTCACCTAGTGCAG", "binding signal": "3340 fluorescence intensity (a.u.)"}
{"sequence": "TTTTATCTGTATGGGCACGACACGTACGTCCACGGTCCACCGGAGTCACCTAGTGCAG", "binding signal": "7000 fluorescence intensity (a.u.)"}
{"sequence": "AAGAGAAAATTCAAGAAATATCATTACCAAAGTCCAAGAACGGAGTCACCTAGTGCAG", "binding signal": "52800 fluorescence intensity (a.u.)"}
{"sequence": "ACGCCGTGACGGTGTATGTAGGCCGACTGGTCCACGTACGCGGAGTCACCTAGTGCAG", "binding signal": "8090 fluorescence intensity (a.u.)"}
{"sequence": "CACGTTTCCTTCTCCAGTTTCCCACACACACTCACCCCTGCGGAGTCACCTAGTGCAG", "binding signal": "3500 fluorescence intensity (a.u.)"}
{"sequence": "ATGCCCTCTCCAACCTCCACTCCGTCACATGCTCCGGATCCGGAGTCACCTAGTGCAG", "binding signal": "4630 fluorescence intensity (a.u.)"}
{"sequence": "ACATGGGCCCATACTCCCTGCACGGGAGCAAACTGGATATCGGAGTCACCTAGTGCAG", "binding signal": "3270 fluorescence intensity (a.u.)"}
{"sequence": "CGGAGACTGTGCCACGTGTCCTCCTCCTGCCACGCGTACCCGGAGTCACCTAGTGCAG", "binding signal": "27200 fluorescence intensity (a.u.)"}
{"sequence": "GGAAGCTAATTATAATCCGACTTAACACCTCTACACGTCACGGAGTCACCTAGTGCAG", "binding signal": "7420 fluorescence intensity (a.u.)"}
{"sequence": "TGCTAGATACCTCTTCATCTGTACACACGCCCTGCCAAATCGGAGTCACCTAGTGCAG", "binding signal": "3290 fluorescence intensity (a.u.)"}
{"sequence": "GCACCGAACCAAATCCCCATCGCGCCGCGGCGGTGGCGAGCGGAGTCACCTAGTGCAG", "binding signal": "28500 fluorescence intensity (a.u.)"}
{"sequence": "CGCGTCGCCCCTTCTCTCGTCACCGCGCCACCGCATCGCCCGGAGTCACCTAGTGCAG", "binding signal": "5180 fluorescence intensity (a.u.)"}
{"sequence": "GATGGTGAATTTTGCTGCTGTCAAGTGATTGCTCCATTCACGGAGTCACCTAGTGCAG", "binding signal": "3290 fluorescence intensity (a.u.)"}
{"sequence": "CTGCATATTGTTCATCTGGCGAGCCACGTCGATTGTTACACGGAGTCACCTAGTGCAG", "binding signal": "6580 fluorescence intensity (a.u.)"}
{"sequence": "GCCACCACGCCGAGAGCCCATCTTGTAGTCATCTCTCGCTCGGAGTCACCTAGTGCAG", "binding signal": "26700 fluorescence intensity (a.u.)"}
{"sequence": "CGTTCCGGCTCCGATAGCAACGTGACCGTACGGGATAAGACGGAGTCACCTAGTGCAG", "binding signal": "3190 fluorescence intensity (a.u.)"}
{"sequence": "TACAATTTGTTGCGAGATCCACCTCAACCTACAGGCTACACGGAGTCACCTAGTGCAG", "binding signal": "3490 fluorescence intensity (a.u.)"}
{"sequence": "ATAATCACACTCAATCTCAGGTTCTTGCTCCACGTACTCCCGGAGTCACCTAGTGCAG", "binding signal": "7140 fluorescence intensity (a.u.)"}
{"sequence": "ACGGCGACAGCGTGGAGCTCCACGACGGCAGCGACGTCGGCGGAGTCACCTAGTGCAG", "binding signal": "3590 fluorescence intensity (a.u.)"}
{"sequence": "CGCCGCCGCCGCCGCCGTCCAAGATGGACTGCTTCTTGTCCGGAGTCACCTAGTGCAG", "binding signal": "3420 fluorescence intensity (a.u.)"}
{"sequence": "CCGATGTGGGTCCCACACCGAGTCAGCGCACGTCGGACAACGGAGTCACCTAGTGCAG", "binding signal": "3380 fluorescence intensity (a.u.)"}
{"sequence": "AACCGTGACTCTCTGCCCACCTGGCCCCACCTGTCATCTCCGGAGTCACCTAGTGCAG", "binding signal": "4080 fluorescence intensity (a.u.)"}
{"sequence": "TACTGCGACGAGTGTAGTGTTGATGTGGATGTAACTGTAACGGAGTCACCTAGTGCAG", "binding signal": "6290 fluorescence intensity (a.u.)"}
{"sequence": "AACGGGGCCTCGTAGCAACAGCTCTGACGCACGTGACCTCCGGAGTCACCTAGTGCAG", "binding signal": "5400 fluorescence intensity (a.u.)"}
{"sequence": "GGTAGATATCTTATTGACACGACATAATTGACACGTGAAACGGAGTCACCTAGTGCAG", "binding signal": "4970 fluorescence intensity (a.u.)"}
{"sequence": "CGCCATCAGTAGTCAGAGATGCATATCAGCCCATTGATTTCGGAGTCACCTAGTGCAG", "binding signal": "3270 fluorescence intensity (a.u.)"}
{"sequence": "TGAACAGACAGTCAGATTTGCAATATATTCAACCATGCCACGGAGTCACCTAGTGCAG", "binding signal": "3410 fluorescence intensity (a.u.)"}
{"sequence": "CGCGGCCGACGTGGACCACGTGGTGCGCGGACGCTCTGCGCGGAGTCACCTAGTGCAG", "binding signal": "12600 fluorescence intensity (a.u.)"}
{"sequence": "TTTGTGAGCTATAAATGTATCCATACATTGCTTTGCATCACGGAGTCACCTAGTGCAG", "binding signal": "4330 fluorescence intensity (a.u.)"}
{"sequence": "GTATTTCCATGGACATCAGCTTTGTATTACAGTCTATAGGCGGAGTCACCTAGTGCAG", "binding signal": "3230 fluorescence intensity (a.u.)"}
{"sequence": "TGAAATTCTGACCTCACTTCATGCGGCGGGAGGGCGGCTGCGGAGTCACCTAGTGCAG", "binding signal": "4320 fluorescence intensity (a.u.)"}
{"sequence": "GACGTTAGTGATCAGCTGGGTTAATTAATTACGTGGCTAACGGAGTCACCTAGTGCAG", "binding signal": "7210 fluorescence intensity (a.u.)"}
{"sequence": "ACACCATGCATTTAATTGGTGATAAAATCACATCCTTATCCGGAGTCACCTAGTGCAG", "binding signal": "32800 fluorescence intensity (a.u.)"}
{"sequence": "GTCGGCGATGTTCTTGCTGCCGGTGACGATGGATTTCTTGCGGAGTCACCTAGTGCAG", "binding signal": "3390 fluorescence intensity (a.u.)"}
{"sequence": "ACCAACGCTAAAACCGTTTCACCGTATCCTATATACCTATCGGAGTCACCTAGTGCAG", "binding signal": "7820 fluorescence intensity (a.u.)"}
{"sequence": "CCCAAATGACTATGTCATATCAATGAGGATGTGAATCAAACGGAGTCACCTAGTGCAG", "binding signal": "16400 fluorescence intensity (a.u.)"}
{"sequence": "CCGTCGCCCGAGAGCGAACGGCCGTCTGCCACGTCATTTTCGGAGTCACCTAGTGCAG", "binding signal": "29200 fluorescence intensity (a.u.)"}
{"sequence": "ACCTGGTAACTGAACACAGGATGGAAACTCTGAATAATGACGGAGTCACCTAGTGCAG", "binding signal": "3250 fluorescence intensity (a.u.)"}
{"sequence": "GTACATACTGGTGCCTTTTCTGATGTGTACGTATTCCGGTCGGAGTCACCTAGTGCAG", "binding signal": "5350 fluorescence intensity (a.u.)"}
{"sequence": "AACCGGTTTTGCGGTCAAAGGACGAAAATTAGACAGTCCGCGGAGTCACCTAGTGCAG", "binding signal": "9300 fluorescence intensity (a.u.)"}
